In this assay the target is Pcl12-GFP (Ustilago maydis) (UniProt A4ZY37). Description: affinity purification with mass spectrometry; GFP-trap beads with crude extracts (HB buffer) of cells expressing the fuz7DD allele and Pcl12-GFP; SDS-PAGE, trypsin digest, LC-MS.

Chains of the proteins cited; added tags and fusions are not shown. Lines headed by an entry give the natural chain unless they say otherwise; changes in a name come on top.
UniProt Q8NKE9: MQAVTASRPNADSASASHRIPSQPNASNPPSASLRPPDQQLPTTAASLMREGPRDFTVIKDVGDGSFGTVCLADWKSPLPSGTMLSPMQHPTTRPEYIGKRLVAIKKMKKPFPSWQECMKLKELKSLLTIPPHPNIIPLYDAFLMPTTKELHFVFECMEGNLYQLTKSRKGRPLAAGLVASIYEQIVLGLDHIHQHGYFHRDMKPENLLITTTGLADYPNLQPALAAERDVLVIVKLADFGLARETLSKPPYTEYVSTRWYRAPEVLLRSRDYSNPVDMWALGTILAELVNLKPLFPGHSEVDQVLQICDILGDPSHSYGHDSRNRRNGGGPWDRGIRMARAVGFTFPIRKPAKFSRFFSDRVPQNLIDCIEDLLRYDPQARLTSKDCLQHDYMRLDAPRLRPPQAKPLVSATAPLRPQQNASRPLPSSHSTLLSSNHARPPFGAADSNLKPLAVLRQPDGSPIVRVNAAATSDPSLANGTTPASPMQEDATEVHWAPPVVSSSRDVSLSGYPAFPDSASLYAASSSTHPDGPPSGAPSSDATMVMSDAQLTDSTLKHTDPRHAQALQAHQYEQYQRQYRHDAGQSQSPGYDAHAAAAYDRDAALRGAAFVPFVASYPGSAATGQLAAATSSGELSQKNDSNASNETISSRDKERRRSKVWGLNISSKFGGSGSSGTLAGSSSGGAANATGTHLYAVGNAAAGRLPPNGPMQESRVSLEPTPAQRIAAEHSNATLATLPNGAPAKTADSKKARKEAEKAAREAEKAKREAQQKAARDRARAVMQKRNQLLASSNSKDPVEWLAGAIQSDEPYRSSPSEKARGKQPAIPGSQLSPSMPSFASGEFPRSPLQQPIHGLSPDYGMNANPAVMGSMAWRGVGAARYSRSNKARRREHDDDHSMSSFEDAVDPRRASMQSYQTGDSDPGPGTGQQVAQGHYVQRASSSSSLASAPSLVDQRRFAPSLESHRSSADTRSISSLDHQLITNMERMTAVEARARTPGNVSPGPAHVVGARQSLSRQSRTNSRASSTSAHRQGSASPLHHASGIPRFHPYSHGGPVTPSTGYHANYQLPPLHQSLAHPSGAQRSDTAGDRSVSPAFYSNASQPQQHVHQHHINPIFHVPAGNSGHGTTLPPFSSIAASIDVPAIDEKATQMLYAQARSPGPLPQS
UniProt A0A0D1DY50: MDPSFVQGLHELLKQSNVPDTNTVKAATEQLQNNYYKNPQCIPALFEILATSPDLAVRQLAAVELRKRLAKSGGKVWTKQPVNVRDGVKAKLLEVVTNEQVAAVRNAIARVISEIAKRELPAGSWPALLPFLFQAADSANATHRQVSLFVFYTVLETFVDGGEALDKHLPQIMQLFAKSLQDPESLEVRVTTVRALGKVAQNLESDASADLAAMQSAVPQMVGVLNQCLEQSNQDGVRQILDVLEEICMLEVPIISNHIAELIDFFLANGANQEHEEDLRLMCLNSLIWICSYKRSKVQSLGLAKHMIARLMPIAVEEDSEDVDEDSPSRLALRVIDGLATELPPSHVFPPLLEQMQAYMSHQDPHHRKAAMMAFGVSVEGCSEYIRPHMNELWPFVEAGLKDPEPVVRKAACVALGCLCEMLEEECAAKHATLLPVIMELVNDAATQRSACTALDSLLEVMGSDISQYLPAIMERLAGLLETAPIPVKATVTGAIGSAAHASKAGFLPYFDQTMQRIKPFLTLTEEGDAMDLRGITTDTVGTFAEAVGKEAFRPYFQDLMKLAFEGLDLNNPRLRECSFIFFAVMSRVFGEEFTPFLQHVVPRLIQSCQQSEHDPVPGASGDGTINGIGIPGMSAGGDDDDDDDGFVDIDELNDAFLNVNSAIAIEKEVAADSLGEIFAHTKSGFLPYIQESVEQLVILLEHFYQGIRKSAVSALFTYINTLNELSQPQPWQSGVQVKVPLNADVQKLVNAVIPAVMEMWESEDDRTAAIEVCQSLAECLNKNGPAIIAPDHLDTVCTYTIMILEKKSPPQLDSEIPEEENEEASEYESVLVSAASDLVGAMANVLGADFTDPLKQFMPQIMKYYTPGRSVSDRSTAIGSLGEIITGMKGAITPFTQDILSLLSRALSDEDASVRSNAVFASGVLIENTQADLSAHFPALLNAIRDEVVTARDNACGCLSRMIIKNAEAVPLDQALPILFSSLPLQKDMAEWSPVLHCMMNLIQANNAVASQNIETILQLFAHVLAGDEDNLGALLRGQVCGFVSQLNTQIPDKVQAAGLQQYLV

Data on two substances can be found in PMC6887120.

Results are given in words; binding and its absence hold for the method and conditions named. Binding seen in cells or lysates may run through a third protein. A yes stands for co-enrichment or nearness to the bait. Other partners may have been found.

Turning to “Crk1 (Cdk-Related Kinase 1) (from UniProt Q8NKE9) (enzyme)”, the binding entry is recorded as “binds”.
Next, “Kap123 (UMAG_15014) (from UniProt A0A0D1DY50)”: “binds”.
